Source: article PMC9171240
Results are given in words; binding and its absence hold for the method and conditions named. In cells and extracts the contact can be indirect. A yes stands for co-enrichment or nearness to the bait. Other partners may have been found. Tags and fused reporters may be left off the sequences shown.

Amino acid sequences for entries named in this document (tags omitted). Residues count along the entry.
UniProt P02679, residues 27-453: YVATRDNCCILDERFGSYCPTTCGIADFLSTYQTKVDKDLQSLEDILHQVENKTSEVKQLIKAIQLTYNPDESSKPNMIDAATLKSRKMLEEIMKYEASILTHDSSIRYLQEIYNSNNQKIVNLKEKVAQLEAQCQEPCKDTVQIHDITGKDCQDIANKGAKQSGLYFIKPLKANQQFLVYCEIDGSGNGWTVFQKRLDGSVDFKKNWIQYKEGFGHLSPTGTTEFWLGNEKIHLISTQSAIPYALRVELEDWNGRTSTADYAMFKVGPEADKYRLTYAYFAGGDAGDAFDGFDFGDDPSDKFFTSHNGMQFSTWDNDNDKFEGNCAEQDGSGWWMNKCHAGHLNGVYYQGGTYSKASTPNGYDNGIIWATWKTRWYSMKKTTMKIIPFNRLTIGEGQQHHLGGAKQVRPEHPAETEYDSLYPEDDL
UniProt P21333: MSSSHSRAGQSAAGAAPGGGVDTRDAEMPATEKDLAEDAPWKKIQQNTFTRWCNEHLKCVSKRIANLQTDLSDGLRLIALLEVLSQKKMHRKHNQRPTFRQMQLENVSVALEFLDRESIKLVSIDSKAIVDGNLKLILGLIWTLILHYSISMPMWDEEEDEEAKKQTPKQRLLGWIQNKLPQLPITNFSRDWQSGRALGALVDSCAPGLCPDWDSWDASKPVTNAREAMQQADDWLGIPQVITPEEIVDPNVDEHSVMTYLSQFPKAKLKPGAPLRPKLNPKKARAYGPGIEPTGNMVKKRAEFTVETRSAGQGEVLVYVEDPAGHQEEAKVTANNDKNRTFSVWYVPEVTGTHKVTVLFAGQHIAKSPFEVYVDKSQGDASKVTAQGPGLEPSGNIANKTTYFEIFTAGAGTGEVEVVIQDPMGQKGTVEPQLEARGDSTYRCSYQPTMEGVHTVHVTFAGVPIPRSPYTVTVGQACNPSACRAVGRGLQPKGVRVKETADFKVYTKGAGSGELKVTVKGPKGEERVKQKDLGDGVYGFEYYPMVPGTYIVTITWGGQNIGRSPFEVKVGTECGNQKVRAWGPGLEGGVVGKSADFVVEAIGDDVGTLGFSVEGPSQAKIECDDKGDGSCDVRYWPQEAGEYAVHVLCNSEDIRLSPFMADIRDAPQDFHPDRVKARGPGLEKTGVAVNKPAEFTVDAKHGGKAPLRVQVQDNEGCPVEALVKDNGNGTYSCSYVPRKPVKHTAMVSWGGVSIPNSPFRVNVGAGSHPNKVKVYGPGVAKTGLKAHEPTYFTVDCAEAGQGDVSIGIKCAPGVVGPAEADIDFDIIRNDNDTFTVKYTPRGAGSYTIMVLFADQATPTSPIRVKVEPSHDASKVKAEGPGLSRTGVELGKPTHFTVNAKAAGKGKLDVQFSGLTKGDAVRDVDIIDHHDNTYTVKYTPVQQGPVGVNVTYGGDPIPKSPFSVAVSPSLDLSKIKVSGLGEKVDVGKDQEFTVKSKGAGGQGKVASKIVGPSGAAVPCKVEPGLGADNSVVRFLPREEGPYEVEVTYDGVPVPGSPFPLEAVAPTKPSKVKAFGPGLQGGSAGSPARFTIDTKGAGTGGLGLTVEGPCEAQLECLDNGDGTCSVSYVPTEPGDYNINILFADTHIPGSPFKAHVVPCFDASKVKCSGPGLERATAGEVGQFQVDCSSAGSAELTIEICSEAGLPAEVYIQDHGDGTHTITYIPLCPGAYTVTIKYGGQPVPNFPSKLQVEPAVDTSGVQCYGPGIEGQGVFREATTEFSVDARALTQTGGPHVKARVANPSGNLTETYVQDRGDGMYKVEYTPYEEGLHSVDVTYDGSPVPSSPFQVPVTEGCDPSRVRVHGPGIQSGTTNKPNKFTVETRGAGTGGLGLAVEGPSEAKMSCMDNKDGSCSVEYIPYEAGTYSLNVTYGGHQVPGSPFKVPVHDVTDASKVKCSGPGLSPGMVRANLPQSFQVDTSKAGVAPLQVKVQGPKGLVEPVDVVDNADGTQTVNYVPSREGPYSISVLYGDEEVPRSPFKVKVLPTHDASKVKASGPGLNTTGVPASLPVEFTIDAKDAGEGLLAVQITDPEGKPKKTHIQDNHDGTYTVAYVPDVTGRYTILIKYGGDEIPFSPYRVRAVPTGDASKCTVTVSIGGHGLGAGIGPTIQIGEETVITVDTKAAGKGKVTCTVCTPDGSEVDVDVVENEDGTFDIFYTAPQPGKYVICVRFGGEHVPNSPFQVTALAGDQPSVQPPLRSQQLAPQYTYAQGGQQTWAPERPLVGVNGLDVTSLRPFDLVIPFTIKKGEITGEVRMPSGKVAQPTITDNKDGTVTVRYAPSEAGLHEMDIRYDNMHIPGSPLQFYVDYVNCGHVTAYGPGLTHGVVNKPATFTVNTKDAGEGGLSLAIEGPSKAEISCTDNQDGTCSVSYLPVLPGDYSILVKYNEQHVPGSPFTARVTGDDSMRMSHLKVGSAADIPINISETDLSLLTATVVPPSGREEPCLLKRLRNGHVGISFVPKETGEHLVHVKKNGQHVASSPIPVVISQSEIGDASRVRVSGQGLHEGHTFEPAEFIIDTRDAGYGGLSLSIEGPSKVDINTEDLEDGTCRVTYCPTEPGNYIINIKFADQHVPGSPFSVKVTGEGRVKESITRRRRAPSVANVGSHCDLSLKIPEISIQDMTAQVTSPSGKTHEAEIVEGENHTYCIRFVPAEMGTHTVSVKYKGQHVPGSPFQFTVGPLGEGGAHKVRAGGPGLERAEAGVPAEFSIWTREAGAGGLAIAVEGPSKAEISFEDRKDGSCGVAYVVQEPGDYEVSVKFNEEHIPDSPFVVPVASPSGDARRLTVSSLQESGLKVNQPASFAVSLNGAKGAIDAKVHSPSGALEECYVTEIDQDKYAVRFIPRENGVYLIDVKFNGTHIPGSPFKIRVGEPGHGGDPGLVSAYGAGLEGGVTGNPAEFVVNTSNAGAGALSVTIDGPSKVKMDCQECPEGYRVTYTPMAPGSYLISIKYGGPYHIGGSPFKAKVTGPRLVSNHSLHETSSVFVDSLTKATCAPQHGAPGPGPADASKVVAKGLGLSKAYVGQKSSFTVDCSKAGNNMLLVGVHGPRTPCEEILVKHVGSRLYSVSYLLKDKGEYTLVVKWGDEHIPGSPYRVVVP
UniProt P07237, residues 18-508: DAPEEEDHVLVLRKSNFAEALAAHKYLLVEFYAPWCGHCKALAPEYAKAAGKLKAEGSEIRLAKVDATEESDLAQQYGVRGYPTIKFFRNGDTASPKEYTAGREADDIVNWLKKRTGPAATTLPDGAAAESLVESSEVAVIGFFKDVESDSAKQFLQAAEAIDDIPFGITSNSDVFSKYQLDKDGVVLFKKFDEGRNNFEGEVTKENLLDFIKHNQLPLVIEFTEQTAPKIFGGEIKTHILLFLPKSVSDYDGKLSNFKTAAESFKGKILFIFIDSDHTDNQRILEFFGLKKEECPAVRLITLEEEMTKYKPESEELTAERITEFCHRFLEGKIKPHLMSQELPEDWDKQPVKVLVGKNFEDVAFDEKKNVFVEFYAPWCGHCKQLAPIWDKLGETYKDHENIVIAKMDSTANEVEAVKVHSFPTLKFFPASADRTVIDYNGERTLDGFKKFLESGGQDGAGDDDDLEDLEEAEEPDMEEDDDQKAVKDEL
UniProt O14744: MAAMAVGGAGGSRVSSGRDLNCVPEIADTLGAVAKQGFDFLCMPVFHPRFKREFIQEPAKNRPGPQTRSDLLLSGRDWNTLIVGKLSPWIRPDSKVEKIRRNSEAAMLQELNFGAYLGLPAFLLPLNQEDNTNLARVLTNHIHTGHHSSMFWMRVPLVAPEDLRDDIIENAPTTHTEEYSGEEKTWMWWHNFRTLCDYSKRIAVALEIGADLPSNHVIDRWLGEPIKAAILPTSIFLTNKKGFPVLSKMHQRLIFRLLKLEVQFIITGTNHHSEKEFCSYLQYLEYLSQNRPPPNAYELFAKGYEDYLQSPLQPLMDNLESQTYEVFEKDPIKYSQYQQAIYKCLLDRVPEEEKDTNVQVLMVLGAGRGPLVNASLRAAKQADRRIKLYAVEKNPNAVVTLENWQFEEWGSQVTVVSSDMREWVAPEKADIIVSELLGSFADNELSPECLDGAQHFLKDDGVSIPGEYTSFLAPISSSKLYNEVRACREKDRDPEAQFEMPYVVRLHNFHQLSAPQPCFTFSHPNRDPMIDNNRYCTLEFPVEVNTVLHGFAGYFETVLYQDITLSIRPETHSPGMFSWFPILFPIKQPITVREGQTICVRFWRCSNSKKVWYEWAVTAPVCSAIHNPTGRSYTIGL
UniProt Q01082: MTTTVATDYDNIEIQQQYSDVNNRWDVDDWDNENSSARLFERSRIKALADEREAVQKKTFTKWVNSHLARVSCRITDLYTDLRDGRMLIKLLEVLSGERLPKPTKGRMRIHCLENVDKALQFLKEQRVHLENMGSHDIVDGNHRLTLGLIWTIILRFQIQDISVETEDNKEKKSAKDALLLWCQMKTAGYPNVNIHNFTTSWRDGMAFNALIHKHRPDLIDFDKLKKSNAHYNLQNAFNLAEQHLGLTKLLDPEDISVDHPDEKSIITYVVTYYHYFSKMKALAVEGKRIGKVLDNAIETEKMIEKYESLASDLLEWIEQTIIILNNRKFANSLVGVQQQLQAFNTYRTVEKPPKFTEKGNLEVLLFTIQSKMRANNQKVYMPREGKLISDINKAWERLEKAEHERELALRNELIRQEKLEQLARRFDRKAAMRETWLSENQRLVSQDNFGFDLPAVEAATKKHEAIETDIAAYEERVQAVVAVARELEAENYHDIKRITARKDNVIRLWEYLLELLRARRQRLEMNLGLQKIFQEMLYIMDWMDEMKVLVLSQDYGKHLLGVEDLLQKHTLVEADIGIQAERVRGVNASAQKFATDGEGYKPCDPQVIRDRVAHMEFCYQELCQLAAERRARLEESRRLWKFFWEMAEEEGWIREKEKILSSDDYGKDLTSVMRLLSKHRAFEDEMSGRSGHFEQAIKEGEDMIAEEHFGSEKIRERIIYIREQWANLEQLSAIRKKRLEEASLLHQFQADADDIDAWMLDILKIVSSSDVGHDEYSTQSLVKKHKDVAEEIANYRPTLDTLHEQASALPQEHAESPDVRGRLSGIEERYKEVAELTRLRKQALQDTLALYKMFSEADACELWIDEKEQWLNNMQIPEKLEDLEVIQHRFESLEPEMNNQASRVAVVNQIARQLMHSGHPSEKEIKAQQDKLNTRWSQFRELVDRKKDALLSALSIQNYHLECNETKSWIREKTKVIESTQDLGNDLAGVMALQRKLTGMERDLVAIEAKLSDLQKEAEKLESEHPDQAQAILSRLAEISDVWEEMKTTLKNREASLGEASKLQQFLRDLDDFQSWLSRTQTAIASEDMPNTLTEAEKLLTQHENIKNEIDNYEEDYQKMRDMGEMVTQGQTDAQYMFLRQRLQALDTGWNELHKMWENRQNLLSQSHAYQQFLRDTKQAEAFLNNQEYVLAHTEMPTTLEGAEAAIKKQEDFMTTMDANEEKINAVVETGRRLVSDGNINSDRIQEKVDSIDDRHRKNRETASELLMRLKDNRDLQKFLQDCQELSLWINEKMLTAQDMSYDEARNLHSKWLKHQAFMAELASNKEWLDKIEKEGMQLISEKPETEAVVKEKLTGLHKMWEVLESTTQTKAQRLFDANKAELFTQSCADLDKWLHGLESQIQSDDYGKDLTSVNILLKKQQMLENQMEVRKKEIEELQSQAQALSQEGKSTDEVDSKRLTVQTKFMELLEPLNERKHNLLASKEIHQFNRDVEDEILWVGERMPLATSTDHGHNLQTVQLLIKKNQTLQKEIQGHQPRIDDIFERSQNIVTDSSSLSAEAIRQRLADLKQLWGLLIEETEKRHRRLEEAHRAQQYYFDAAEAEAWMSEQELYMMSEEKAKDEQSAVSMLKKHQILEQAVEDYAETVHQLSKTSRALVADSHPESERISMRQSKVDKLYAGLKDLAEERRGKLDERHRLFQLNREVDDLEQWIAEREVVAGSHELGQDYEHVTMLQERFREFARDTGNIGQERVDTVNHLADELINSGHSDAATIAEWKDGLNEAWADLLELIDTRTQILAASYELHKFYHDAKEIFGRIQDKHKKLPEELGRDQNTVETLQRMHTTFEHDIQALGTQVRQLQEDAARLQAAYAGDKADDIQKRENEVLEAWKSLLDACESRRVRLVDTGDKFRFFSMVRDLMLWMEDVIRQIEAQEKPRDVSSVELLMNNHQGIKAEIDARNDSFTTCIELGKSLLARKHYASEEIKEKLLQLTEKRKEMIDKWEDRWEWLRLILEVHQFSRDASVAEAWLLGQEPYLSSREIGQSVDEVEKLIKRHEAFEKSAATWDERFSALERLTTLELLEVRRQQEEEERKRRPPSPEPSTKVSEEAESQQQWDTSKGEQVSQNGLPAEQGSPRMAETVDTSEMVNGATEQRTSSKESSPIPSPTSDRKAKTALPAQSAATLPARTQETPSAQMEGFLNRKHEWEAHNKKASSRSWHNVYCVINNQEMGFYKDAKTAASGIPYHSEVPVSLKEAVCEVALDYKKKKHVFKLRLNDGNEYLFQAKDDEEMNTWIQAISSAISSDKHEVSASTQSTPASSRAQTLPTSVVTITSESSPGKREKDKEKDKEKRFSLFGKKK

Molecular target: T1, 3 × Flag-SMPDL3A (sphingomyelin phodiesterase acid-like 3A) (UniProt Q92484)
T1 sequence: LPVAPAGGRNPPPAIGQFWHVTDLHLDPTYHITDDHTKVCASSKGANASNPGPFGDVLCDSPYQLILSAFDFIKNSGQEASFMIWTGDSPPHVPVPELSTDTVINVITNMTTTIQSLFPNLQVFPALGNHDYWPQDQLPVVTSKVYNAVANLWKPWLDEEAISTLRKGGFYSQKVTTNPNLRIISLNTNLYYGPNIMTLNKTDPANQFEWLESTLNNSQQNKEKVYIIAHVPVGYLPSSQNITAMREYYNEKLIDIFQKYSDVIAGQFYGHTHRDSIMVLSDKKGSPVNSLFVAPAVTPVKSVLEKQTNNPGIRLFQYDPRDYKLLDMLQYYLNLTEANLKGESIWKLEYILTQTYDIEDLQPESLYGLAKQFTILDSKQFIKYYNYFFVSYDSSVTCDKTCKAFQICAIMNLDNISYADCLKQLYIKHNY
Assay: affinity purification with mass spectrometry; Flag beads on NP-40 lysate of Huh7 cells overexpressing Flag-tagged SMPDL3A, eluted with 3 × Flag peptide; SDS-PAGE, Coomassie staining, extracted protein band analysed by shotgun mass spectrometry

binding, binds:
BCLAF1 (from UniProt Q9NYF8 1-920), CASP14 (human (endogenous in Huh7)), FGG (from UniProt P02679 27-453), FLNA (from UniProt P21333 1-2647), HSP90AB1 (from UniProt P08238 1-724), HSPA5 (from UniProt P11021 19-654), MYH9 (from UniProt P35579 1-1960), P4HB (from UniProt P07237 18-508), PRMT5 (from UniProt O14744 1-637), SPTBN1 (from UniProt Q01082 1-2364)
